These are yes or no findings as the source states them, for the method shown. Some results given as binding are weak or reduced against the parent protein; the word gives no strength.

Test [1] concerns the target GL2 START domain alone, two-hybrid bait and prey in pGBKT7/pGADT7 (Arabidopsis thaliana) (UniProt P46607). The experiment in a line: two-hybrid.
The target in test [2] is GL2 START-STAD fragment (253-747), two-hybrid bait and prey in pGBKT7/pGADT7 (Arabidopsis thaliana) (UniProt P46607). The experiment in a line: two-hybrid.

B1: GL2 START domain alone, two-hybrid bait and prey in pGBKT7/pGADT7 (domain or fragment, UniProt P46607 250-489)
chain: FALEKSRIAEISNRATLELQKMATSGEPMWLRSVETGREILNYDEYLKEFPQAQASSFPGRKTIEASRDAGIVFMDAHKLAQSFMDVGQWKETFACLISKAATVDVIRQGEGPSRIDGAIQLMFGEMQLLTPVVPTREVYFVRSCRQLSPEKWAIVDVSVSVEDSNTEKEASLLKCRKLPSGCIIEDTSNGHSKVTWVEHLDVSASTVQPLFRSLVNTGLAFGARHWVATLQLHCERLVF
Turning to B1, the binding entry in test [1] is recorded as “no binding”.

B2: GL2 START-STAD fragment (253-747), two-hybrid bait and prey in pGBKT7/pGADT7 (domain or fragment, UniProt P46607 253-747)
chain: EKSRIAEISNRATLELQKMATSGEPMWLRSVETGREILNYDEYLKEFPQAQASSFPGRKTIEASRDAGIVFMDAHKLAQSFMDVGQWKETFACLISKAATVDVIRQGEGPSRIDGAIQLMFGEMQLLTPVVPTREVYFVRSCRQLSPEKWAIVDVSVSVEDSNTEKEASLLKCRKLPSGCIIEDTSNGHSKVTWVEHLDVSASTVQPLFRSLVNTGLAFGARHWVATLQLHCERLVFFMATNVPTKDSLGVTTLAGRKSVLKMAQRMTQSFYRAIAASSYHQWTKITTKTGQDMRVSSRKNLHDPGEPTGVIVCASSSLWLPVSPALLFDFFRDEARRHEWDALSNGAHVQSIANLSKGQDRGNSVAIQTVKSREKSIWVLQDSSTNSYESVVVYAPVDINTTQLVLAGHDPSNIQILPSGFSIIPDGVESRPLVITSTQDDRNSQGGSLLTLALQTLINPSPAAKLNMESVESVTNLVSVTLHNIKRSLQIEDC
Turning to B2, in test [2], the binding result is reported as “binds”.
